Results taken from article PMC11417407.
No constants are given. Whether binding was seen depends on the method and setting. In cells and extracts the contact can be indirect. These calls come from enrichment with a bait or labelling near it, and not all partners need be listed.

Chains of the proteins cited; added tags and fusions are not shown.
UniProt Q13838: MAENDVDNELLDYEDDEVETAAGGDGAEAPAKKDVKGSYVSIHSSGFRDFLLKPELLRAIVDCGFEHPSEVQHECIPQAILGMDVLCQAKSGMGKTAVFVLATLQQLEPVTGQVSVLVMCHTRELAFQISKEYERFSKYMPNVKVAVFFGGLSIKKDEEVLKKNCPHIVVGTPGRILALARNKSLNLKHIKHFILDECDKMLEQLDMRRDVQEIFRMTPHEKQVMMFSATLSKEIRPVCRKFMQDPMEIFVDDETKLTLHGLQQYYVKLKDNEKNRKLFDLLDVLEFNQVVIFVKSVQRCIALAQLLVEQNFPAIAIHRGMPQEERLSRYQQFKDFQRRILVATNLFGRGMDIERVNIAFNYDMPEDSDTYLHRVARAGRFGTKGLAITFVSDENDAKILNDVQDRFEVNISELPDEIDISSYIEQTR

Columns and labels:
GST-PHAX = GST-PHAX (UniProt Q9H814); experiment: affinity purification with mass spectrometry; GST-PHAX and FLAG-UAP56 with HNEs, ATP and RNase A; first anti-FLAG M2 affinity gel and 3xFLAG peptide elution, then Glutathione Sepharose and HRV 3C protease; SDS-PAGE, CBB staining, mass spectrometry of cut-out bands; anti-ALY western blotting; only the target purified
[1] = molecular target: FLAG-UAP56 wild-type (WT) protein (UniProt Q13838); experiment: as above

Row | Binder | binding (GST-PHAX) | binding [1]
1 | CIP29 (endogenous, HeLa nuclear extract) (protein, UniProt P82979 1-210) MATETVELHKLKLAELKQECLARGLETKGIKQDLIHRLQAYLEEHAEEEANEEDVLGDETEEEETKPIELPVKEEEPPEKTVDVAAEKKVVKITSEIPQTERMQKRAERFNVPVSLESKKAARAARFGISSVPTKGLSSDNKPMVNLDKLKERAQRFGLNVSSISRKSEDDEKLKKRKERFGIVTSSAGTGTTEDTEAKKRKRAERFGIA | binds | binds
2 | ASHWIN (endogenous, HeLa nuclear extract) (protein, UniProt Q9BVC5 1-232) MAGDVGGRSCTDSELLLHPELLSQEFLLLTLEQKNIAVETDVRVNKDSLTDLYVQHAIPLPQRDLPKNRWGKMMEKKREQHEIKNETKRSSTVDGLRKRPLIVFDGSSTSTSIKVKKTENGDNDRLKPPPQASFTSNAFRKLSNSSSSVSPLILSSNLPVNNKTEHNNNDAKQNHDLTHRKSPSGPVKSPPLSPVGTTPVKLKRAAPKEEAEAMNNLKPPQAKRKIQHVTWP | binds | binds
3 | ARS2 (endogenous, HeLa nuclear extract) (protein, UniProt Q9BXP5 1-876) MGDSDDEYDRRRRDKFRRERSDYDRSRERDERRRGDDWNDREWDRGRERRSRGEYRDYDRNRRERFSPPRHELSPPQKRMRRDWDEHSSDPYHSGYEMPYAGGGGGPTYGPPQPWGHPDVHIMQHHVLPIQARLGSIAEIDLGVPPPVMKTFKEFLLSLDDSVDETEAVKRYNDYKLDFRRQQMQDFFLAHKDEEWFRSKYHPDEVGKRRQEARGALQNRLRVFLSLMETGWFDNLLLDIDKADAIVKMLDAAVIKMEGGTENDLRILEQEEEEEQAGKPGEPSKKEEGRAGAGLGDGERKTNDKDEKKEDGKQAENDSSNDDKTKKSEGDGDKEEKKEDSEKEAKKSSKKRNRKHSGDDSFDEGSVSESESESESGQAEEEKEEAEEALKEKEKPKEEEWEKPKDAAGLECKPRPLHKTCSLFMRNIAPNISRAEIISLCKRYPGFMRVALSEPQPERRFFRRGWVTFDRSVNIKEICWNLQNIRLRECELSPGVNRDLTRRVRNINGITQHKQIVRNDIKLAAKLIHTLDDRTQLWASEPGTPPLPTSLPSQNPILKNITDYLIEEVSAEEEELLGSSGGAPPEEPPKEGNPAEINVERDEKLIKVLDKLLLYLRIVHSLDYYNTCEYPNEDEMPNRCGIIHVRGPMPPNRISHGEVLEWQKTFEEKLTPLLSVRESLSEEEAQKMGRKDPEQEVEKFVTSNTQELGKDKWLCPLSGKKFKGPEFVRKHIFNKHAEKIEEVKKEVAFFNNFLTDAKRPALPEIKPAQPPGPAQILPPGLTPGLPYPHQTPQGLMPYGQPRPPILGYGAGAVRPAVPTGGPPYPHAPYGAGRGNYDAFRGQGGYPGKPRNRMVRGDPRAIVEYRDLDAPDDVDFF | binds | binds

More lines, now with the values ahead:

Row | binding (GST-PHAX) | binding [1] | Binder
4 | binds | binds | RTCB (endogenous, HeLa nuclear extract) (protein, UniProt Q9Y3I0 1-505) MSRSYNDELQFLEKINKNCWRIKKGFVPNMQVEGVFYVNDALEKLMFEELRNACRGGGVGGFLPAMKQIGNVAALPGIVHRSIGLPDVHSGYGFAIGNMAAFDMNDPEAVVSPGGVGFDINCGVRLLRTNLDESDVQPVKEQLAQAMFDHIPVGVGSKGVIPMNAKDLEEALEMGVDWSLREGYAWAEDKEHCEEYGRMLQADPNKVSARAKKRGLPQLGTLGAGNHYAEIQVVDEIFNEYAAKKMGIDHKGQVCVMIHSGSRGLGHQVATDALVAMEKAMKRDKIIVNDRQLACARIASPEGQDYLKGMAAAGNYAWVNRSSMTFLTRQAFAKVFNTTPDDLDLHVIYDVSHNIAKVEQHVVDGKERTLLVHRKGSTRAFPPHHPLIAVDYQLTGQPVLIGGTMGTCSYVLTGTEQGMTETFGTTCHGAGRALSRAKSRRNLDFQDVLDKLADMGIAIRVASPKLVMEEAPESYKNVTDVVNTCHDAGISKKAIKLRPIAVIKG
5 | binds | – | HPR1 (endogenous, HeLa nuclear extract) (protein, UniProt Q96FV9 1-657) MSPTPPLFSLPEARTRFTKSTREALNNKNIKPLLSTFSQVPGSENEKKCTLDQAFRGILEEEIINHSSCENVLAIISLAIGGVTEGICTASTPFVLLGDVLDCLPLDQCDTIFTFVEKNVATWKSNTFYSAGKNYLLRMCNDLLRRLSKSQNTVFCGRIQLFLARLFPLSEKSGLNLQSQFNLENVTVFNTNEQESTLGQKHTEDREEGMDVEEGEMGDEEAPTTCSIPIDYNLYRKFWSLQDYFRNPVQCYEKISWKTFLKYSEEVLAVFKSYKLDDTQASRKKMEELKTGGEHVYFAKFLTSEKLMDLQLSDSNFRRHILLQYLILFQYLKGQVKFKSSNYVLTDEQSLWIEDTTKSVYQLLSENPPDGERFSKMVEHILNTEENWNSWKNEGCPSFVKERTSDTKPTRIIRKRTAPEDFLGKGPTKKILMGNEELTRLWNLCPDNMEACKSETREHMPTLEEFFEEAIEQADPENMVENEYKAVNNSNYGWRALRLLARRSPHFFQPTNQQFKSLPEYLENMVIKLAKELPPPSEEIKTGEDEDEEDNDALLKENESPDVRRDKPVTGEQIEVFANKLGEQWKILAPYLEMKDSEIRQIECDSEDMKMRAKQLLVAWQDQEGVHATPENLINALNKSGLSDLAESLTNDNETNS
6 | binds | binds | DDX1 (endogenous, HeLa nuclear extract) (protein, UniProt Q92499 1-740) MAAFSEMGVMPEIAQAVEEMDWLLPTDIQAESIPLILGGGDVLMAAETGSGKTGAFSIPVIQIVYETLKDQQEGKKGKTTIKTGASVLNKWQMNPYDRGSAFAIGSDGLCCQSREVKEWHGCRATKGLMKGKHYYEVSCHDQGLCRVGWSTMQASLDLGTDKFGFGFGGTGKKSHNKQFDNYGEEFTMHDTIGCYLDIDKGHVKFSKNGKDLGLAFEIPPHMKNQALFPACVLKNAELKFNFGEEEFKFPPKDGFVALSKAPDGYIVKSQHSGNAQVTQTKFLPNAPKALIVEPSRELAEQTLNNIKQFKKYIDNPKLRELLIIGGVAARDQLSVLENGVDIVVGTPGRLDDLVSTGKLNLSQVRFLVLDEADGLLSQGYSDFINRMHNQIPQVTSDGKRLQVIVCSATLHSFDVKKLSEKIMHFPTWVDLKGEDSVPDTVHHVVVPVNPKTDRLWERLGKSHIRTDDVHAKDNTRPGANSPEMWSEAIKILKGEYAVRAIKEHKMDQAIIFCRTKIDCDNLEQYFIQQGGGPDKKGHQFSCVCLHGDRKPHERKQNLERFKKGDVRFLICTDVAARGIDIHGVPYVINVTLPDEKQNYVHRIGRVGRAERMGLAISLVATEKEKVWYHVCSSRGKGCYNTRLKEDGGCTIWYNEMQLLSEIEEHLNCTISQVEPDIKVPVDEFDGKVTYGQKRAAGGGSYKGHVDILAPTVQELAALEKEAQTSFLHLGYLPNQLFRTF
